According to patent EP1029544A1, “INTRA-CANCER-CELL NUCLEASE ACTIVATOR” (Nippon Shinyaku Co., Ltd., priority 1997, dated 1999):
≈ marks a conversion by molar mass, not a printed value.

Test system: MCF7
Assay: Growth inhibitory effect (in vitro), MTT method
Format: cell-based
Details: Homo sapiens, 72 h; MCF7, Breast adenocarcinoma; 3 days
Experimental: A 96-well plate was seeded with cells at a density of 10^4 cells/well. On the following day, the activator of Example 4 or adriamycin was added and the cultivation was continued. After 3 days the viable cell count was determined by the MTT method.

An IC50 of 0.073 µg/mL (≈ 0.134 µM) was found for `COc1cccc2c1C(=O)c1c(O)c3c(c(O)c1C2=O)C[C@@](O)(C(=O)CO)C[C@@H]3O[C@H]1C[C@H](N)[C@H](O)[C@H](C)O1` [Adriamycin] in this work.
